In paper PMC8408152:
Results are given in words; binding and its absence hold for the method and conditions named. Binding seen in cells or lysates may run through a third protein. Some binding calls cover weakened binding; strength is not graded here. Tags and fused reporters may be left off the sequences shown.

Sequences of proteins named here, by UniProt entry; tags and fusion partners are left off.
UniProt O95166: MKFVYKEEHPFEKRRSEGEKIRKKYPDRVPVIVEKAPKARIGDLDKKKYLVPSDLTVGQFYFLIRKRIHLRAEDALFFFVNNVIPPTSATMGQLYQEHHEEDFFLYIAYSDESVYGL

Target: T1, GABAARγ2-GFP (UniProt P18507)
T1 sequence: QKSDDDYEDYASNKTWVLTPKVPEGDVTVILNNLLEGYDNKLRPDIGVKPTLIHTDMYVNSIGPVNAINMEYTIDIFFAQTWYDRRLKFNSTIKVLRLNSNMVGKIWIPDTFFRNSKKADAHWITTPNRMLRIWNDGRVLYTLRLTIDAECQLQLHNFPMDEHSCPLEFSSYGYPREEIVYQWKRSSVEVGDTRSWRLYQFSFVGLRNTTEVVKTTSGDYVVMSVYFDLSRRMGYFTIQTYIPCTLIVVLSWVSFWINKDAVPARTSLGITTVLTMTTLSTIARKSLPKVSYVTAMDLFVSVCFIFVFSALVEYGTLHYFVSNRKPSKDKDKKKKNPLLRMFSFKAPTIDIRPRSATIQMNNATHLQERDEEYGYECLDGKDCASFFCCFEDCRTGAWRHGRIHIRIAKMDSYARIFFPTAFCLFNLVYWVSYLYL
Assay: co-IP; WT and ATG4D-deficient HEK293T cells overexpressing HA-GABARAP and GABAARγ2-GFP; same protocol as for cerebellum; GFP-Trap agarose beads for 2 h to precipitate the receptor; IgG control

binding: binds
Substance: HA-GABARAP (from UniProt O95166 1-117)
